# The supplement of paper PMC6411743
# Protein sequences, listed by entry. Tags and fused reporters are not part of them. Lines headed by an entry give the natural chain unless they say otherwise; changes in a name come on top.
# UniProt Q6ZTU2, whole entry: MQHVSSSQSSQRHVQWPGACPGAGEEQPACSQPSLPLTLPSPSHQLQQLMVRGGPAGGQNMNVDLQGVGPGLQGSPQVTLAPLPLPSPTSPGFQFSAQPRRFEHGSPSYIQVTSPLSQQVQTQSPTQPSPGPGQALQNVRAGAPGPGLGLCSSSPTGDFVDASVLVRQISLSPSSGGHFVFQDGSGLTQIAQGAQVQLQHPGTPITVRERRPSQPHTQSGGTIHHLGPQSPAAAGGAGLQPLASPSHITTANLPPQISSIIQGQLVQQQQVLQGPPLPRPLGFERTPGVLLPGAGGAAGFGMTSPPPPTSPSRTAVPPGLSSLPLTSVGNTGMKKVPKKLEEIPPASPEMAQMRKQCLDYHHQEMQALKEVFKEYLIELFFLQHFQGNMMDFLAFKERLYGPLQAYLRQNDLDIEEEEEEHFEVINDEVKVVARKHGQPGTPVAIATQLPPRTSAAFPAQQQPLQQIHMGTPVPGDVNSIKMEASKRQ
# UniProt P67812: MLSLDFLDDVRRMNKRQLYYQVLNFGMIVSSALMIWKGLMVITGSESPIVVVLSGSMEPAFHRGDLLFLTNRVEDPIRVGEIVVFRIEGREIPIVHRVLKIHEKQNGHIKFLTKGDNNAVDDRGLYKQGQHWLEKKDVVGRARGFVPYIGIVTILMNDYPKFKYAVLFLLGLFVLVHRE
# UniProt P21359: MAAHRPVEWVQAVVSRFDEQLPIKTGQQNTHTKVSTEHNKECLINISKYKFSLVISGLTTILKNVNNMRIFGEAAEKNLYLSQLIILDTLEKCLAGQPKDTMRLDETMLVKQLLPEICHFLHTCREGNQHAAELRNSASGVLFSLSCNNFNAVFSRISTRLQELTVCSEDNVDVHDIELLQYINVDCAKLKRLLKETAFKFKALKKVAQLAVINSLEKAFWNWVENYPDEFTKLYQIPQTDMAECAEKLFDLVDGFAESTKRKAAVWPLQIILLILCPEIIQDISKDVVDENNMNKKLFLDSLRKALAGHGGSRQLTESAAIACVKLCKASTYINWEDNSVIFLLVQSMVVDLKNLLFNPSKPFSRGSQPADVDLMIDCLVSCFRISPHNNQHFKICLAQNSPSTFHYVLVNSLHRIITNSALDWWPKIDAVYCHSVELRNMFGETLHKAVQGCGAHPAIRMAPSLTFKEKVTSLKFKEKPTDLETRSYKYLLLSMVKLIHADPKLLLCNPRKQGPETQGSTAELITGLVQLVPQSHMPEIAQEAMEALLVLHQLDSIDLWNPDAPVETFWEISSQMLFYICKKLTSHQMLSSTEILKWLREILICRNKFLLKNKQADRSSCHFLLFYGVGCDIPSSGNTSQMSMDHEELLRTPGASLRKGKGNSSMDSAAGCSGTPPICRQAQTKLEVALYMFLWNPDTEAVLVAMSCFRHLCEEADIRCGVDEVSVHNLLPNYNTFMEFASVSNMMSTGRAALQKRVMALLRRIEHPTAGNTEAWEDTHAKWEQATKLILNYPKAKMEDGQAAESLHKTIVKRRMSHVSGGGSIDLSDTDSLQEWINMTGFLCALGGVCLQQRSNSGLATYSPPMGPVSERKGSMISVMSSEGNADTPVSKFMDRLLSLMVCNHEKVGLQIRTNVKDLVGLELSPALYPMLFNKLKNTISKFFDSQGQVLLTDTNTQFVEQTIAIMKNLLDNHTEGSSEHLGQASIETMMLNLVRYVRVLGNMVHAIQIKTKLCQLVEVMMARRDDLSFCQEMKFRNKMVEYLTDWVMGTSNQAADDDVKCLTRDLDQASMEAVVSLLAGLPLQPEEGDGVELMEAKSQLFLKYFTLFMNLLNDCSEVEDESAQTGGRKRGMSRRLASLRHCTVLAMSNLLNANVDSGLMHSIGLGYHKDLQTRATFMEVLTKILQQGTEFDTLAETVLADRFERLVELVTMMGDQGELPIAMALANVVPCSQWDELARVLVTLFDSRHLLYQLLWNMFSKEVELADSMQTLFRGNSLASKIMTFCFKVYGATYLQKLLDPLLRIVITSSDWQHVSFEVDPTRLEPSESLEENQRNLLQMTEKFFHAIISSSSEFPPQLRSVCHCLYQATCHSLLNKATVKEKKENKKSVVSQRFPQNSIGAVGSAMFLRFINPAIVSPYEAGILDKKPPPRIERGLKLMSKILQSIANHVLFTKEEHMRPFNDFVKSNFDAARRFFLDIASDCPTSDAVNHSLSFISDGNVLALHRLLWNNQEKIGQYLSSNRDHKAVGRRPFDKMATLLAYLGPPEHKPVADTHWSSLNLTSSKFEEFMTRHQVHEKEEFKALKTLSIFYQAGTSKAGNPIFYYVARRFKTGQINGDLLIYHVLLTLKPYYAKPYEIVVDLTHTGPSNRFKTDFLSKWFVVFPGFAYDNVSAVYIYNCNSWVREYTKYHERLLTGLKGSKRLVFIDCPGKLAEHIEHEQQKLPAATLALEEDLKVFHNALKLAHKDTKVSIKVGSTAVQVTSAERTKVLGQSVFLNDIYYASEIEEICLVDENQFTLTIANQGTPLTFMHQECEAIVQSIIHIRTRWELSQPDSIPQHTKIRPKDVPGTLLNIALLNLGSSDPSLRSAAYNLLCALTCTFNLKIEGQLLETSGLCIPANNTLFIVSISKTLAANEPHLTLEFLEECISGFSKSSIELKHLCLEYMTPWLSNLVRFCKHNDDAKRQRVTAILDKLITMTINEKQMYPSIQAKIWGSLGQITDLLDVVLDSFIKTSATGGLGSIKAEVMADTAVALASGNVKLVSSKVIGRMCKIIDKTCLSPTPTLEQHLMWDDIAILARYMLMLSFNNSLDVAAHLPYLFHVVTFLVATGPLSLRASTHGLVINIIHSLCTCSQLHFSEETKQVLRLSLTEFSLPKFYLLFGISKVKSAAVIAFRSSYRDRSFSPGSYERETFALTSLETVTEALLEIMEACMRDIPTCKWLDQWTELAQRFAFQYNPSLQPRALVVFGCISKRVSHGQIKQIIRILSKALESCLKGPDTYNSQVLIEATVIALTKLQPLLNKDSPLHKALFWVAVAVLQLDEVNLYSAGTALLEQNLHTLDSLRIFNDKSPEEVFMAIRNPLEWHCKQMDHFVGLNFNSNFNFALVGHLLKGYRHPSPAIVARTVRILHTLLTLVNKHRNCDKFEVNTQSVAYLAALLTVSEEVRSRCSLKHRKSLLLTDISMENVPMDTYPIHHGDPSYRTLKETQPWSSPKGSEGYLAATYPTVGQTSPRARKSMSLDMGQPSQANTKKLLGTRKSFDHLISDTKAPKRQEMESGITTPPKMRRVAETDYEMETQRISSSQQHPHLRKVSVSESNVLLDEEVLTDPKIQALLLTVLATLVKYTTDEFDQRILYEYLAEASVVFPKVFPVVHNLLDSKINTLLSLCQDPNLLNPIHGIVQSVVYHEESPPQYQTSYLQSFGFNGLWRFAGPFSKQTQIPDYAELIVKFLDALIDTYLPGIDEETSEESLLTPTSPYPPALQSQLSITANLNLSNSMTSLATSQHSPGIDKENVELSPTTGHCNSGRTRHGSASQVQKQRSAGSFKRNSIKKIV
# UniProt Q96SW2: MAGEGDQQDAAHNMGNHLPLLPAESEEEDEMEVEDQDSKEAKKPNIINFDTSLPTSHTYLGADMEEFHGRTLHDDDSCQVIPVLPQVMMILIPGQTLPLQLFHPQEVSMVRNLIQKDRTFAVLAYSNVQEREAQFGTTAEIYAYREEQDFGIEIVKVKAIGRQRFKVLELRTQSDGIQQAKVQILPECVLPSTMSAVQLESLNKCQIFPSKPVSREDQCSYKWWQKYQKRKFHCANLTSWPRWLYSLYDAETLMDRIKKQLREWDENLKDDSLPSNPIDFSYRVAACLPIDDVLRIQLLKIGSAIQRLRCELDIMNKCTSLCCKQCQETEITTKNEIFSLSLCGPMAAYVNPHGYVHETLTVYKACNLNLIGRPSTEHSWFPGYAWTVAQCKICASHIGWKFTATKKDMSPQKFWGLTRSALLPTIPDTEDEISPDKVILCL
# UniProt P62316, whole entry: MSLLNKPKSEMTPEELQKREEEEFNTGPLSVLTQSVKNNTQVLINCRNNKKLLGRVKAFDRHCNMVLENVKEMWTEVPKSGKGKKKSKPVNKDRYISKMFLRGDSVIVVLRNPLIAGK
# UniProt Q9P107: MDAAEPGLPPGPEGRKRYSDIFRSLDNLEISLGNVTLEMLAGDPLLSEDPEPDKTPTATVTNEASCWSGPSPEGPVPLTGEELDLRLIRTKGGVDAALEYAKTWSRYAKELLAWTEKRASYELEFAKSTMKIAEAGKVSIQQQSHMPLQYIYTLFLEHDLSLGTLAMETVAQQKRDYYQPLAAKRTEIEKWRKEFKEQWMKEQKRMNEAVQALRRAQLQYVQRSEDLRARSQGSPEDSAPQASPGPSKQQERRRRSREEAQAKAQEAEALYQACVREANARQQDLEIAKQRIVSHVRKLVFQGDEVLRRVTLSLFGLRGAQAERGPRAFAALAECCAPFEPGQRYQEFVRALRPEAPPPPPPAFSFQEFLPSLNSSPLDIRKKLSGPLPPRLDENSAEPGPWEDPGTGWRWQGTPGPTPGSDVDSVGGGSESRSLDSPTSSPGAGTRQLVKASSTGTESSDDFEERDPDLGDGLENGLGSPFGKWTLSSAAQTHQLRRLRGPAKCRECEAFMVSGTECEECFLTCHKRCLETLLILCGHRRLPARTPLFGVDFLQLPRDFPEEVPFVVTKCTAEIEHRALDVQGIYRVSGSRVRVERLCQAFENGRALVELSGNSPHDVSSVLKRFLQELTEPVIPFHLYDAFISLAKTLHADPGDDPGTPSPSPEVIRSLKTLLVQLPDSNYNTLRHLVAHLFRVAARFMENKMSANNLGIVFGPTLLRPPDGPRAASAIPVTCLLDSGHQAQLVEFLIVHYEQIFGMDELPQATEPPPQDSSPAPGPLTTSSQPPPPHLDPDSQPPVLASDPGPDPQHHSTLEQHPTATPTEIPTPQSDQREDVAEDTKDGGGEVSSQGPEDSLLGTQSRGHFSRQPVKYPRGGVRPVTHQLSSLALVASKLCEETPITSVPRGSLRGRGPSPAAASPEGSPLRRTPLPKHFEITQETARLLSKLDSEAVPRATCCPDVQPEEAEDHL
# UniProt Q5T3F8: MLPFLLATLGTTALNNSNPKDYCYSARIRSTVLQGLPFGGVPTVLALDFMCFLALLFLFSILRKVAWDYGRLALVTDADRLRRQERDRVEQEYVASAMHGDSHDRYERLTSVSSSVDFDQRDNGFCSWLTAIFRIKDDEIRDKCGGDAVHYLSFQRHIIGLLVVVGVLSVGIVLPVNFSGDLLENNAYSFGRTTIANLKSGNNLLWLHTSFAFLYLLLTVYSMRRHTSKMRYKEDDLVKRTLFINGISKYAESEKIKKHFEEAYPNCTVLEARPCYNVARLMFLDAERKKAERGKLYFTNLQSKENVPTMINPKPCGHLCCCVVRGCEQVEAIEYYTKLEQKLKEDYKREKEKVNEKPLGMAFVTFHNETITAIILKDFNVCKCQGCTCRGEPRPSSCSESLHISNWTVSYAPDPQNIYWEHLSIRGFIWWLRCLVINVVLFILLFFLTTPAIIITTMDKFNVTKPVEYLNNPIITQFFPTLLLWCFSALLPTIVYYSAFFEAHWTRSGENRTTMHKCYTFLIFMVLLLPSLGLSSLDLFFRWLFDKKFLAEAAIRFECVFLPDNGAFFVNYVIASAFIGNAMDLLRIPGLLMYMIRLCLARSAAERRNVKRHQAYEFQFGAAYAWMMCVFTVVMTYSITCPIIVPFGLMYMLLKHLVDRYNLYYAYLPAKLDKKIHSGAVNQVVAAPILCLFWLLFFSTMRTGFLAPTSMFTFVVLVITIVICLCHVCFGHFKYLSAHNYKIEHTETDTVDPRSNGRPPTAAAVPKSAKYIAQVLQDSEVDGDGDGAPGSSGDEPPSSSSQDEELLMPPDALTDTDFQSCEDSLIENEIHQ
# UniProt Q6NW29: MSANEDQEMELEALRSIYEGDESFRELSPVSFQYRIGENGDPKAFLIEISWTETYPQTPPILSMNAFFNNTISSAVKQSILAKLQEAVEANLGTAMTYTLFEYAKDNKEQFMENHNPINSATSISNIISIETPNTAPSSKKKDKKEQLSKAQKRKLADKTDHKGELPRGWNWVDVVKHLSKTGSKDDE
# UniProt Q8N4P3, whole entry: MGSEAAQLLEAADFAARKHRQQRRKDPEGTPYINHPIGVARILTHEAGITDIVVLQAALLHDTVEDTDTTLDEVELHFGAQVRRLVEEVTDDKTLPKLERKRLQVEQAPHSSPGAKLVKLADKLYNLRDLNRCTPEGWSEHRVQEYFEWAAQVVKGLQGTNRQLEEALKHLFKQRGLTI
# UniProt Q13227: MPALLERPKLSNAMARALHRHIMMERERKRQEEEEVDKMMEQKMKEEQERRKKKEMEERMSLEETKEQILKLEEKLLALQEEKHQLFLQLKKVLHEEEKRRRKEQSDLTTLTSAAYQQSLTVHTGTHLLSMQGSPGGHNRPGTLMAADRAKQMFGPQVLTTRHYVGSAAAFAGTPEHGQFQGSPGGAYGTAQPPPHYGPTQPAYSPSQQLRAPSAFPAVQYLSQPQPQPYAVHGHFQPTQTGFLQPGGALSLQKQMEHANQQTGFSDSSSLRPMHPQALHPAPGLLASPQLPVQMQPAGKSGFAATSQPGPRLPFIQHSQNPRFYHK
# ± gives the standard deviation of the averaged measurements. Only a part is listed here, and it is no random draw.
# Compound: Nc1ncnc2c1ncn2[C@@H]1O[C@H](COP(=O)(O)OP(=O)(O)OP(=O)(O)O)[C@@H](O)[C@H]1O [adenosine triphosphate]
# Assay: NP40-soluble protein abundance relative to vehicle (solubility fold change) (ratio); higher = more soluble protein in presence of ATP
# How it was run: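 Data come from three independent experiments in which Dounce-homogenised Jurkat crude lysate was treated at eight concentrations from 0.1 to 10 mM. Treatment ran 10 min at room temperature and then 3 min at 37 °C, after which 0.8% NP40 and benzonase were added for 60 min at 4 °C before ultracentrifugation. The supernatant underwent TMT labelling and LC-MS/MS, and vsn-normalised intensities were expressed as fold change against the detergent-processed vehicle in each replicate.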
Target,NP40-soluble protein abundance (concentration: 1mM),NP40-soluble protein abundance (concentration: 2mM),NP40-soluble protein abundance (concentration: 4mM),NP40-soluble protein abundance (concentration: 6mM),NP40-soluble protein abundance (concentration: 8mM),NP40-soluble protein abundance (concentration: 10mM)
H3BP20 and related entries (UniProt P06865),0.975 ± 0.072,0.979 ± 0.052,0.946 ± 0.05,0.899 ± 0.11,0.945 ± 0.041,0.964 ± 0.053
H9KV84 and related entries (UniProt Q6ZTU2),0.868 ± 0.074,0.955 ± 0.096,0.997 ± 0.038,0.953 ± 0.27,0.913 ± 0.0046,0.855 ± 0.14
H0YNG3 and related entries (UniProt P67812),1.05 ± 0.12,1.02 ± 0.088,1.03 ± 0.072,0.942 ± 0.14,1.04 ± 0.064,0.988 ± 0.046
J3KSB5 and related entries (UniProt P21359),1.06 ± 0.17,1.03 ± 0.03,1.06 ± 0.13,1.03 ± 0.045,1.06 ± 0.15,1.06 ± 0.03
H3BM14 and related entries (UniProt Q9Y5A7),0.989 ± 0.035,0.986 ± 0.05,0.991 ± 0.051,0.946 ± 0.081,0.942 ± 0.063,0.975 ± 0.034
L0R819 (UniProt Q9NWL6),0.912 ± 0.13,0.958 ± 0.13,0.956 ± 0.059,1.04 ± 0.22,0.892 ± 0.13,0.919 ± 0.096
I3L3K7 and related entries (UniProt Q12968),1.05 ± 0.034,1.01 ± 0.056,1.01 ± 0.055,1.01 ± 0.039,0.975 ± 0.024,1.02 ± 0.048
H3BQM0 and related entries (UniProt Q8NDF8),1.07 ± 0.064,1.19 ± 0.13,1.28 ± 0.15,1.42 ± 0.05,1.46 ± 0.14,1.62 ± 0.13
J3QT87 and related entries (UniProt Q96SW2),0.952 ± 0.09,0.933 ± 0.064,0.927 ± 0.11,0.85 ± 0.13,0.947 ± 0.046,0.935 ± 0.021
H7C5D9 and related entries (UniProt O75427),1.26 ± 0.17,1.26 ± 0.16,1.31 ± 0.16,1.33 ± 0.2,1.24 ± 0.2,1.3 ± 0.17
K7EJB5 and related entries (UniProt P62316),1.1 ± 0.11,1.11 ± 0.099,1.18 ± 0.12,1.3 ± 0.12,1.34 ± 0.097,1.32 ± 0.1
H7BZB3 and related entries (UniProt P27708),1.03 ± 0.064,0.968 ± 0.029,0.944 ± 0.042,0.891 ± 0.09,0.984 ± 0.097,0.978 ± 0.094
K7EJC2 and related entries (UniProt Q9P107),1.02 ± 0.058,1.01 ± 0.025,1.08 ± 0.068,1.04 ± 0.063,0.993 ± 0.066,1.01 ± 0.045
H7C5I3 and related entries (UniProt P35236),0.991 ± 0.05,0.985 ± 0.041,1 ± 0.013,0.952 ± 0.053,0.966 ± 0.035,0.961 ± 0.02
J3KP75 and related entries (UniProt O75167),0.928 ± 0.07,0.964 ± 0.035,0.971 ± 0.058,0.985 ± 0.034,0.936 ± 0.026,0.981 ± 0.081
J3QLB2 and related entries (UniProt Q8N1S5),0.988 ± 0.06,1.04 ± 0.07,1.08 ± 0.038,1.07 ± 0.12,1 ± 0.035,1.09 ± 0.075
H0YCP6 and related entries (UniProt Q5T3F8),0.966 ± 0.048,1.02 ± 0.073,0.962 ± 0.055,0.909 ± 0.075,0.928 ± 0.035,0.989 ± 0.085
H0YAA2 and related entries (UniProt O43660),0.953 ± 0.039,0.975 ± 0.027,1.05 ± 0.013,1.05 ± 0.07,1.14 ± 0.024,1.16 ± 0.043
J3KP26 and related entries (UniProt Q86W74),0.971 ± 0.099,1.02 ± 0.12,0.996 ± 0.054,0.975 ± 0.1,1 ± 0.14,0.988 ± 0.054
J3KQ48 and related entries (UniProt Q9Y3E5),1.03 ± 0.027,1.02 ± 0.029,1.02 ± 0.034,1.04 ± 0.021,1.02 ± 0.018,0.977 ± 0.06
J3KPC5 and related entries (UniProt P47736),0.924 ± 0.074,0.877 ± 0.057,0.881 ± 0.038,0.855 ± 0.066,0.849 ± 0.088,0.828 ± 0.082
K4DI92 and related entries (UniProt Q6NW29),0.904 ± 0.05,0.9555 ± 0.0089,0.916 ± 0.014,0.9147 ± 0.0066,0.894 ± 0.035,0.89 ± 0.046
H7BXY6 and related entries (UniProt Q8NG11),0.926 ± 0.037,0.997 ± 0.085,0.905 ± 0.11,0.984 ± 0.081,0.912 ± 0.05,0.894 ± 0.052
J9JIE6 and related entries (UniProt Q9UM00),0.912 ± 0.054,0.96 ± 0.049,0.97 ± 0.044,1.06 ± 0.024,1.04 ± 0.095,1.05 ± 0.028
H0Y5D5 and related entries (UniProt Q9ULV3),0.941 ± 0.05,0.9655 ± 0.0055,0.963 ± 0.015,1.02 ± 0.021,0.957 ± 0.033,0.9573 ± 0.0065
H7C0G7 and related entries (UniProt Q9H9Q4),1.02 ± 0.13,0.948 ± 0.085,0.941 ± 0.096,0.984 ± 0.15,0.865 ± 0.067,0.944 ± 0.096
H0YE91 and related entries (UniProt Q15782),1.12 ± 0.08,1.13 ± 0.12,1.11 ± 0.084,1.15 ± 0.19,1.14 ± 0.16,1.14 ± 0.16
H0YNP9 and related entries (UniProt Q8N4P3),1.17 ± 0.44,1.19 ± 0.26,1.08 ± 0.2,1.16 ± 0.25,1.08 ± 0.07,1.08 ± 0.18
I3L4X7 and related entries (UniProt Q13227),1.01 ± 0.081,0.983 ± 0.064,0.984 ± 0.084,1.03 ± 0.059,1 ± 0.046,1.02 ± 0.049
J3KN32 and related entries (UniProt Q9UKL0),0.979 ± 0.022,0.987 ± 0.036,0.987 ± 0.07,1.03 ± 0.051,1 ± 0.07,1.01 ± 0.036

# 2 entries picked at random from the list so far, as already listed:
Target,NP40-soluble protein abundance (concentration: 1mM),NP40-soluble protein abundance (concentration: 2mM),NP40-soluble protein abundance (concentration: 4mM),NP40-soluble protein abundance (concentration: 6mM),NP40-soluble protein abundance (concentration: 8mM),NP40-soluble protein abundance (concentration: 10mM)
I3L3K7 and related entries (UniProt Q12968),1.05 ± 0.034,1.01 ± 0.056,1.01 ± 0.055,1.01 ± 0.039,0.975 ± 0.024,1.02 ± 0.048
J3KSB5 and related entries (UniProt P21359),1.06 ± 0.17,1.03 ± 0.03,1.06 ± 0.13,1.03 ± 0.045,1.06 ± 0.15,1.06 ± 0.03
